{"source": "patent EP3548017B1", "about": "“COMPOSITION COMPRISING GLUTATHION TIOESTER AND SECOIRIDOIDS OF THE PLANT OLEA EUROPEA FOR TREATING HAIR LOSS” (Innbiotec Pharma S.R.L., priority 2016, dated 2018)", "origin": "cited, not measured here", "test_system": "Telogen Mouse Skin", "details": "subcutaneously injected oleuropein preparations; compared with Minoxidil", "note": "At least one compound was matched to its structure with a doubt left."}
{"smiles": "C/C=C1/[C@H](O[C@@H]2O[C@H](CO)[C@@H](O)[C@H](O)[C@H]2O)OC=C(C(=O)OC)[C@H]1CC(=O)OCCc1ccc(O)c(O)c1", "note": "[oleuropein]", "values": [{"measurement": "efficacy during the transition from the telogen to anagen phase", "value": "significantly greater than that obtained with Minoxidil"}]}
